Experimental data from the supplement of paper PMC6078165.
Values are relative to the signal before dosing, not to a vehicle control; the signal also falls without drug.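 Fibroblast labels denote human fibroblasts, mainly primary ones from uterus (C12385, HUF), lung (H6013), bone (Hs27A), adrenal (HADF) and skin (WS1), plus mammary HMF and breast cancer-associated Hs343T. Cancer cells are basal-like or mesenchymal-like triple-negative breast cancer lines. A hit is a response shift exceeding 3x replicate standard deviation. The tissue of the other fibroblasts is not given here.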

Tested on: Hs578T
Experiment: relative JC-1 red fluorescence (viability) vs pre-drug, coculture with fibroblast (fraction); higher = more viable cancer cells
Protocol: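 JC-1 labelled TNBC cells cocultured 1:1 (1,500 cells each) with CellTrace Violet stained primary or stromal fibroblasts in 384-well plates in FluoroBrite medium, treated with one of 42 anticancer drugs at 0.1, 1, 10 or 100 uM. JC-1 red fluorescence (mitochondrial integrity in cancer cells only) was read by plate reader every 8 h for 72 h. Values are normalised to each well's pre-drug value. The stock of one drug was tenfold lower, so its dose labels may be too high.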

CS(=O)(=O)CCNCc1ccc(-c2ccc3ncnc(Nc4ccc(OCc5cccc(F)c5)c(Cl)c4)c3c2)o1 [Lapatinib]
relative JC-1 red fluorescence
Settings | 8 h | 16 h | 24 h | 32 h | 40 h | 48 h | 56 h | 64 h | 72 h
0.1 µM | 0.89944 | 0.806 | 0.788 | 0.771 | 0.73 | 0.695 | 0.678 | 0.641 | 0.625
1 µM | 0.9385 | 0.866 | 0.804 | 0.761 | 0.69758 | 0.6496 | 0.6309 | 0.583 | 0.552

relative JC-1 red fluorescence
Settings | 8 h | 16 h | 24 h | 32 h | 40 h | 48 h | 56 h | 64 h | 72 h
0.1 µM, coculture fibroblast: C12385 | 0.82787 | 0.7456 | 0.7 | 0.62 | 0.5696 | 0.5488 | 0.532 | 0.537 | 0.541
0.1 µM, coculture fibroblast: H6013 | 0.9034 | 0.8783 | 0.83075 | 0.8129 | 0.786 | 0.773 | 0.759 | 0.762 | 0.738
0.1 µM, coculture fibroblast: H6019 | 0.8135 | 0.714 | 0.703 | 0.638 | 0.605 | 0.5836 | 0.5527 | 0.5281 | 0.5109
0.1 µM, coculture fibroblast: H6076 | 0.92276 | 0.8439 | 0.8058 | 0.81 | 0.789 | 0.805 | 0.797 | 0.809 | 0.819
0.1 µM, coculture fibroblast: H6231 | 0.902 | 0.826 | 0.747 | 0.718 | 0.657 | 0.63 | 0.583 | 0.558 | 0.541
0.1 µM, coculture fibroblast: HADF | 0.899 | 0.867 | 0.7984 | 0.757 | 0.7195 | 0.698 | 0.668 | 0.663 | 0.637
0.1 µM, coculture fibroblast: HCFa | 0.8986 | 0.862 | 0.8 | 0.763 | 0.704 | 0.68 | 0.646 | 0.628 | 0.585
0.1 µM, coculture fibroblast: HCPF | 0.9537 | 0.86559 | 0.792 | 0.764 | 0.715 | 0.69358 | 0.657 | 0.629 | 0.6117
0.1 µM, coculture fibroblast: HHSteC | 0.921 | 0.848 | 0.791 | 0.758 | 0.709 | 0.674 | 0.642 | 0.627 | 0.599
0.1 µM, coculture fibroblast: HMF | 0.921 | 0.85 | 0.798 | 0.786 | 0.742 | 0.73 | 0.685 | 0.677 | 0.665
0.1 µM, coculture fibroblast: HPFa | 0.956 | 0.9 | 0.81 | 0.749 | 0.697 | 0.6604 | 0.6162 | 0.581 | 0.532
0.1 µM, coculture fibroblast: HUF | 0.8654 | 0.7785 | 0.714 | 0.624 | 0.563 | 0.5287 | 0.498 | 0.49035 | 0.4759
0.1 µM, coculture fibroblast: Hs27A | 0.88 | 0.827 | 0.795 | 0.758 | 0.72 | 0.7106 | 0.672 | 0.662 | 0.622
0.1 µM, coculture fibroblast: Hs343T | 0.94 | 0.8598 | 0.789 | 0.787 | 0.732 | 0.708 | 0.662 | 0.646 | 0.638
0.1 µM, coculture fibroblast: WS1 | 0.8358 | 0.734 | 0.701 | 0.617 | 0.581 | 0.575 | 0.563 | 0.571 | 0.578
1 µM, coculture fibroblast: C12385 | 0.856 | 0.8075 | 0.784 | 0.717 | 0.666 | 0.646 | 0.618 | 0.61 | 0.603
1 µM, coculture fibroblast: H6013 | 0.919 | 0.933 | 0.924 | 0.905 | 0.8771 | 0.845 | 0.809 | 0.79 | 0.753
1 µM, coculture fibroblast: H6019 | 0.827 | 0.7816 | 0.781 | 0.69 | 0.669 | 0.651 | 0.629 | 0.621 | 0.597
1 µM, coculture fibroblast: H6076 | 0.941 | 0.9159 | 0.896 | 0.874 | 0.833 | 0.83 | 0.811 | 0.791 | 0.781
1 µM, coculture fibroblast: H6231 | 0.934 | 0.8514 | 0.833 | 0.795 | 0.738 | 0.717 | 0.678 | 0.654 | 0.629
1 µM, coculture fibroblast: HADF | 0.859 | 0.861 | 0.807 | 0.777 | 0.742 | 0.721 | 0.6888 | 0.678 | 0.646
1 µM, coculture fibroblast: HCFa | 0.8957 | 0.892 | 0.868 | 0.836 | 0.792 | 0.787 | 0.763 | 0.747 | 0.703
1 µM, coculture fibroblast: HCPF | 0.9129 | 0.845 | 0.8302 | 0.7895 | 0.737 | 0.7208 | 0.711 | 0.674 | 0.654
1 µM, coculture fibroblast: HHSteC | 0.894 | 0.868 | 0.818 | 0.775 | 0.735 | 0.712 | 0.678 | 0.651 | 0.613
1 µM, coculture fibroblast: HMF | 0.914 | 0.8856 | 0.842 | 0.82 | 0.761 | 0.722 | 0.6987 | 0.6691 | 0.648
1 µM, coculture fibroblast: HPFa | 0.932 | 0.87 | 0.838 | 0.806 | 0.779 | 0.755 | 0.715 | 0.694 | 0.65
1 µM, coculture fibroblast: HUF | 0.901 | 0.791 | 0.755 | 0.662 | 0.608 | 0.576 | 0.539 | 0.519 | 0.505
1 µM, coculture fibroblast: Hs27A | 0.9214 | 0.9097 | 0.891 | 0.86378 | 0.8097 | 0.793 | 0.758 | 0.76 | 0.707
1 µM, coculture fibroblast: Hs343T | 0.852 | 0.902 | 0.838 | 0.782 | 0.834 | 0.796 | 0.752 | 0.716 | 0.694
1 µM, coculture fibroblast: WS1 | 0.8212 | 0.739 | 0.6864 | 0.61132 | 0.56231 | 0.549 | 0.53 | 0.523 | 0.518
